Some of the results follow. Single values are uncertain, as repeats are few or missing.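 Cells were imaged in 1,536-well plates, and nuclei stained with an antibody against cleaved PARP were counted against all DNA-stained nuclei to give the apoptosis fraction. Screening doses were chosen to leave most cells alive, and resting and induced cleaved-PARP levels differ strongly between cell lines.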
Experiments:
Test in all cases: cleaved PARP positive nuclei fraction relative to DMSO control; melanoma cells; higher = more apoptosis
Conditions in all cases: library dose: low library concentration; 72 h
MZ2-MEL = test system: MZ2-MEL
MeWo = test system: MeWo
RPMI7951 = test system: RPMI7951
RVH-421 = test system: RVH-421
SkMel28 = test system: SkMel28
SkMel30 = test system: SkMel30
SkMel5 = test system: SkMel5
UACC257 = test system: UACC257
UACC62 = test system: UACC62
SkMel2 = test system: SkMel2

Row | SMILES | cleaved PARP positive nuclei fraction (MZ2-MEL) [%] | cleaved PARP positive nuclei fraction (MeWo) [%] | cleaved PARP positive nuclei fraction (RPMI7951) [%] | cleaved PARP positive nuclei fraction (RVH-421) [%] | cleaved PARP positive nuclei fraction (SkMel28) [%] | cleaved PARP positive nuclei fraction (SkMel30) [%] | cleaved PARP positive nuclei fraction (SkMel5) [%] | cleaved PARP positive nuclei fraction (UACC257) [%] | cleaved PARP positive nuclei fraction (UACC62) [%] | cleaved PARP positive nuclei fraction (SkMel2) [%]
1 | C/C(O)=C(\C#N)C(=O)Nc1cc(Br)ccc1Br + Cc1cc([N+](=O)[O-])ccc1NS(=O)(=O)c1cc(Cl)ccc1Cl [FH535] (first compound 2 µM, partner dose 1 µM) | 87.4 | 60.5 | 87 | 84.1 | 114 | 239 | 136 | 133 | 182 | 
2 | Cn1cc(C2=C(c3cn(C4CCN(Cc5ccccn5)CC4)c4ccccc34)C(=O)NC2=O)c2ccccc21 [Enzastaurin] + Cn1c(=O)n(-c2ccc(C(C)(C)C#N)cc2)c2c3cc(-c4cnc5ccccc5c4)ccc3ncc21 [NVP-BEZ235] (first compound 0.8 µM, partner dose 0.004 µM) | 83.4 | 23.3 | 72.3 | 31.2 | 67.2 | 120 |  |  | 73.8 | 56.3
3 | COCC[n+]1c2c(n(Cc3cnccn3)c1C)C(=O)c1ccccc1C2=O + C/C(O)=C(\C#N)C(=O)Nc1cc(Br)ccc1Br [LFM-A13] (first compound 0.0004 µM, partner dose 2 µM) | 94.1 | 82.9 | 240 | 28.8 | 219 | 54.2 | 87.2 | 281 | 796 | 
4 | C#Cc1cccc(Nc2ncnc3cc(OCCOC)c(OCCOC)cc23)c1 [erlotinib] + C[As](C)SC[C@H](NC(=O)CC[C@H](N)C(=O)O)C(=O)NCC(=O)O [Darinaparsin] (first compound 0.8 µM, partner dose 0.4 µM) | 26.8 | 143 | 63.2 | 53.3 | 286 | 133 |  |  | 94.8 | 97.5
5 | OCc1c[nH]c2ccccc12 [Indole-3-carbinol] + C[As](C)SC[C@H](NC(=O)CC[C@H](N)C(=O)O)C(=O)NCC(=O)O [Darinaparsin] (first compound 0.8 µM, partner dose 0.4 µM) | 62.1 | 85.9 | 112 | 195 | 71.8 | 92 |  |  | 398 | 170
6 | CS(=O)(=O)c1ccc(C(=O)Nc2ccc(Cl)c(-c3ccccn3)c2)c(Cl)c1 [vismodegib] + C[As](C)SC[C@H](NC(=O)CC[C@H](N)C(=O)O)C(=O)NCC(=O)O [Darinaparsin] (first compound 1 µM, partner dose 0.4 µM) | 94.8 | 82.6 | 80.5 | 39.5 | 76.3 | 156 |  |  | 26 | 179
7 | Cn1cc(C2=C(c3cn(C4CCN(Cc5ccccn5)CC4)c4ccccc34)C(=O)NC2=O)c2ccccc21 [Enzastaurin] + Nc1nc(F)nc2c1ncn2[C@@H]1O[C@H](CO)[C@@H](O)[C@@H]1O [fludarabine] (first compound 0.8 µM, partner dose 0.2 µM) | 72.5 | 731 | 94.5 | 37.9 | 52.4 | 416 |  |  | 48.8 | 487
8 | CC[C@]1(O)C[C@H]2CN(CCc3c([nH]c4ccccc34)[C@@](C(=O)OC)(c3cc4c(cc3OC)N(C=O)[C@H]3[C@@](O)(C(=O)OC)[C@H](OC(C)=O)[C@]5(CC)C=CCN6CC[C@]43[C@@H]65)C2)C1 [vincristine] + N.N.[Cl][Pt][Cl] [cisplatin] (first compound 0.0001 µM, partner dose 1.6 µM) | 83.8 | 190 | 83.8 | 157 | 62.7 | 61.8 |  |  | 53.7 | 52.2
9 | Cc1cc([N+](=O)[O-])ccc1NS(=O)(=O)c1cc(Cl)ccc1Cl + O=C(Oc1ccc([N+](=O)[O-])cc1)N1CCC(C(O)(c2ccc3c(c2)OCO3)c2ccc3c(c2)OCO3)CC1 [JZL184] (first compound 1 µM, partner dose 1 µM) | 144 | 38 | 122 | 370 | 138 | 37.4 | 79.1 | 182 | 163 | 
10 | C[C@]12O[C@H](C[C@]1(O)CO)n1c3ccccc3c3c4c(c5c6ccccc6n2c5c31)CNC4=O [Lestaurtinib] + O=S(=O)(c1ccccc1)N(CC(F)(F)F)c1ccc(C(O)(C(F)(F)F)C(F)(F)F)cc1 [T0901317] (first compound 0.004 µM, partner dose 1.4 µM) | 74.2 | 21.5 | 64.8 | 160 | 203 | 58 | 155 | 82.1 | 90 | 
11 | Cc1cc(SCc2sc(-c3ccc(C(F)(F)F)c(F)c3)nc2C)ccc1OCC(=O)O + C/C(O)=C(\C#N)C(=O)Nc1cc(Br)ccc1Br [LFM-A13] (first compound 2 µM, partner dose 2 µM) | 120 | 188 | 110 | 71 | 49.3 | 17.6 | 52.7 | 56.9 | 40.5 | 
12 | O=C(Oc1ccc([N+](=O)[O-])cc1)N1CCC(C(O)(c2ccc3c(c2)OCO3)c2ccc3c(c2)OCO3)CC1 + CC(C)CCN1c2nc(Nc3cc(F)c(O)c(F)c3)ncc2N(C)C(=O)C1C [BID1870] (first compound 1 µM, partner dose 0.2 µM) | 316 | 50.6 | 130 | 38.1 | 189 | 241 | 63.3 | 312 | 82.8 | 
13 | C[C@]12O[C@H](C[C@]1(O)CO)n1c3ccccc3c3c4c(c5c6ccccc6n2c5c31)CNC4=O [Lestaurtinib] + Cc1cc([N+](=O)[O-])ccc1NS(=O)(=O)c1cc(Cl)ccc1Cl [FH535] (first compound 0.004 µM, partner dose 1 µM) | 196 | 170 | 134 | 165 | 172 | 77.9 | 83.1 | 86.5 | 202 | 
14 | C/C(O)=C(\C#N)C(=O)Nc1cc(Br)ccc1Br + COc1cc(N2CCC(N3CCN(C)CC3)CC2)ccc1Nc1ncc(Cl)c(Nc2ccccc2S(=O)(=O)C(C)C)n1 [NVP-TAE684] (first compound 2 µM, partner dose 0.08 µM) | 60.6 | 166 | 106 | 58.7 | 176 | 18.3 | 40.2 | 118 | 102 | 
15 | C[C@]12O[C@H](C[C@]1(O)CO)n1c3ccccc3c3c4c(c5c6ccccc6n2c5c31)CNC4=O [Lestaurtinib] + Oc1cc(-c2nc(-c3ccccc3)[nH]c2-c2ccncc2)ccc1Cl [L779450] (first compound 0.004 µM, partner dose 0.2 µM) | 60.3 | 22.7 | 28.3 | 98.9 | 186 | 55.2 | 64.3 | 230 | 305 | 
16 | O=C(O)c1ccc(-c2c[nH]c3ncc(-c4ccccc4)cc23)cc1C1CCCC1 + Cc1cc(SCc2sc(-c3ccc(C(F)(F)F)c(F)c3)nc2C)ccc1OCC(=O)O [GW0742] (first compound 0.16 µM, partner dose 2 µM) | 156 | 66 | 90.9 | 74.5 | 355 | 45.9 | 64.3 | 145 | 171 | 
17 | N.N.[Cl][Pt][Cl] [cisplatin] + Nc1ncn([C@H]2C[C@H](O)[C@@H](CO)O2)c(=O)n1 [decitabine] (first compound 1.6 µM, partner dose 0.1 µM) | 50.1 | 132 | 52.1 | 66 | 39.9 | 76.1 |  |  | 134 | 170
18 | Nc1cccc2c1CN(C1CCC(=O)NC1=O)C2=O (configuration not stated) [lenalidomide] + C/C(O)=C(\C#N)C(=O)Nc1cc(Br)ccc1Br [LFM-A13] (first compound 1 µM, partner dose 2 µM) | 59.7 | 26.3 | 79 | 84.8 | 53.6 | 22 | 68.2 | 51.5 | 91.2 | 
19 | C[C@]12O[C@H](C[C@]1(O)CO)n1c3ccccc3c3c4c(c5c6ccccc6n2c5c31)CNC4=O [Lestaurtinib] + CC(C)CCN1c2nc(Nc3cc(F)c(O)c(F)c3)ncc2N(C)C(=O)C1C [BID1870] (first compound 0.004 µM, partner dose 0.2 µM) | 139 | 46.7 | 129 | 86.7 | 71.6 | 49.7 | 78 | 280 | 172 | 
20 | CN(C)S(=O)(=O)c1ccc2c(c1)/C(=C/c1cc3c([nH]1)CCCC3)C(=O)N2 + C/C(O)=C(\C#N)C(=O)Nc1cc(Br)ccc1Br [LFM-A13] (first compound 0.4 µM, partner dose 2 µM) | 89.1 | 59.6 | 92 | 18.6 | 152 | 29.7 | 68.5 | 73.2 | 198 | 
21 | C[As](C)SC[C@H](NC(=O)CC[C@H](N)C(=O)O)C(=O)NCC(=O)O [Darinaparsin] + N#Cc1c(O)c2c(-c3ccc(-c4ccccc4O)cc3)csc2[nH]c1=O [A769662] (first compound 0.4 µM, partner dose 2 µM) | 118 | 43.9 | 105 | 170 | 88.3 | 28.9 | 95.3 | 97.3 | 232 | 

Part of the list above in another layout:
Row,SMILES,cleaved PARP positive nuclei fraction (MZ2-MEL) [%],cleaved PARP positive nuclei fraction (MeWo) [%],cleaved PARP positive nuclei fraction (RPMI7951) [%],cleaved PARP positive nuclei fraction (RVH-421) [%],cleaved PARP positive nuclei fraction (SkMel28) [%],cleaved PARP positive nuclei fraction (SkMel30) [%],cleaved PARP positive nuclei fraction (SkMel5) [%],cleaved PARP positive nuclei fraction (UACC257) [%],cleaved PARP positive nuclei fraction (UACC62) [%],cleaved PARP positive nuclei fraction (SkMel2) [%]
17,"N.N.[Cl][Pt][Cl] [cisplatin] + Nc1ncn([C@H]2C[C@H](O)[C@@H](CO)O2)c(=O)n1 [decitabine] (first compound 1.6 µM, partner dose 0.1 µM)",50.1,132,52.1,66,39.9,76.1,,,134,170
18,"Nc1cccc2c1CN(C1CCC(=O)NC1=O)C2=O (configuration not stated) [lenalidomide] + C/C(O)=C(\C#N)C(=O)Nc1cc(Br)ccc1Br [LFM-A13] (first compound 1 µM, partner dose 2 µM)",59.7,26.3,79,84.8,53.6,22,68.2,51.5,91.2,

— the supplement of paper PMC4604168 (melanoma cell lines)
